Laboratory results taken from publication PMC7819943, “Rice protein-binding microarrays: a tool to detect cis-acting elements near promoter regions in rice”.
This is one part of the list.

By UniProt entry, the sequences of proteins in these tests, tags left out.
UniProt Q0JBA9, entry or part of it: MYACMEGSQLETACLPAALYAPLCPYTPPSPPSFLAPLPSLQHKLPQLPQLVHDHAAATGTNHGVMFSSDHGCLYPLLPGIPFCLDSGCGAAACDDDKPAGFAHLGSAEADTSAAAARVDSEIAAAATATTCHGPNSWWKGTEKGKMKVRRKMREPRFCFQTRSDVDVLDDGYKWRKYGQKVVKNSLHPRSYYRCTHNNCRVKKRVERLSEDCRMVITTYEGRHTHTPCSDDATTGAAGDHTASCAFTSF

Target: OsWRKY34 (Oryza sativa, UniProt Q0JBA9 1-250)
Assay: protein-binding microarray (RPBM); PBS, 2% BSA, 51.3 ng/ul salmon testes DNA, 50 uM zinc acetate, 200 nM TF, 25 C, 1 h; high values mean tight binding
Conditions: protein: recombinant; tags: N-terminal polyhistidine and DsRed monomer fusion (pET32a); label: CyDye5-dUTP incorporated in the synthesized complementary strand; 3' TTTTT single-stranded linker to array surface; dsDNA, one strand shown
Summary of the method: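 An Axon 4000B scanner gave the binding signal as per-feature fluorescence intensity in arbitrary units. This followed washing of a custom Agilent array that had been incubated for 1 h at 25 °C with 200 nM protein in PBS, 2% BSA, salmon testes DNA and 50 µM zinc acetate. The proteins were transcription factors fused at the N-terminus to polyhistidine and DsRed, expressed in E. coli BL21-CodonPlus and purified on Ni–NTA.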

Sequence	binding signal
TCAACCATTCATTGCTCTTCACTATCCAATTTATTTTTGTCGGAGTCACCTAGTGCAG	8500 fluorescence intensity (a.u.)
TTGATTGATTTTTTTTATATATATTTGCTATTAATAGTCACGGAGTCACCTAGTGCAG	8830 fluorescence intensity (a.u.)
TCTAAAATGATCATGTCGCCCATTTCCCATACTTACATGCCGGAGTCACCTAGTGCAG	8540 fluorescence intensity (a.u.)
CGCTCCCAACACCTCGCGCATTCACTCTGACGCACCGGGCCGGAGTCACCTAGTGCAG	8340 fluorescence intensity (a.u.)
ACCGCCACAGCTTCTGCTTTTTCGCGCGCACCGCGATAGCCGGAGTCACCTAGTGCAG	9710 fluorescence intensity (a.u.)
ACGTCAATTCTATTCCTATATTTTTCATATATCGGTTCCTCGGAGTCACCTAGTGCAG	9600 fluorescence intensity (a.u.)
CCCTTGGTCATATTCACCGCCGGAGCTCACCACCGATGTTCGGAGTCACCTAGTGCAG	8680 fluorescence intensity (a.u.)
TTCTTGGCTTGGCTCCTCTGGTGTTCTTGTGCTCTGGGTTCGGAGTCACCTAGTGCAG	9970 fluorescence intensity (a.u.)
ACATATTGTCGTCACTACATATATACGCAACCATGCATGCCGGAGTCACCTAGTGCAG	10100 fluorescence intensity (a.u.)
GGCCCTGAGCTCTCTCTTGCTGCTTCTTTTAATGGGTTTTCGGAGTCACCTAGTGCAG	9680 fluorescence intensity (a.u.)
CGTTCAGTTAATACGGTATAATTTTGTCCTATGGTTGAAACGGAGTCACCTAGTGCAG	9310 fluorescence intensity (a.u.)
TTCCGGTTCTATTGTCTTTGTCCTGTAGCTTCCAACACTCCGGAGTCACCTAGTGCAG	15800 fluorescence intensity (a.u.)
ATCCTATACTTGACATGAGCATTTGCATTTACGGGTAATTCGGAGTCACCTAGTGCAG	9020 fluorescence intensity (a.u.)
CTACAGGCTTGTTCAGATTGGTACCATTTTAAACCATACCCGGAGTCACCTAGTGCAG	10100 fluorescence intensity (a.u.)
TGCTGTAGGACCCATTTGACCTGGTTTTGCTAGATTAGGGCGGAGTCACCTAGTGCAG	8320 fluorescence intensity (a.u.)
GGCTTTGATTCCCGTCCCTATATAGCTCCACACCCACCACCGGAGTCACCTAGTGCAG	13000 fluorescence intensity (a.u.)
TTCGGTGTCCGGTCTGATTTTTTCTACTATGCTGCATAGTCGGAGTCACCTAGTGCAG	8930 fluorescence intensity (a.u.)
TGCATCATATCCAGTACTTTTTTACTTCCTCTCCGTTTAACGGAGTCACCTAGTGCAG	12100 fluorescence intensity (a.u.)
TTCACATGACTCAAAATTTTGGCTTCGCGCGCGCTAGTAACGGAGTCACCTAGTGCAG	8420 fluorescence intensity (a.u.)
AGTTGCTTACTACTCCCTCCGTTTCACAATGTAAGTCATTCGGAGTCACCTAGTGCAG	9620 fluorescence intensity (a.u.)
TTAAAATGCACACAACCGGACACACACAACCACACTCAAACGGAGTCACCTAGTGCAG	8110 fluorescence intensity (a.u.)
ATACTAGTCCATTCGAGTTGAAACGTTCAGTGAACAGCTACGGAGTCACCTAGTGCAG	8030 fluorescence intensity (a.u.)
CACCAACATGGCTAGGCCCAAGCCCAACTCGTGATCCAGTCGGAGTCACCTAGTGCAG	8320 fluorescence intensity (a.u.)
CTGTTCATGTCTTCTTGTTCTTGCCACAGCCAACAGCATGCGGAGTCACCTAGTGCAG	8200 fluorescence intensity (a.u.)
AGGCACCACATATGCACTCCTCGGTTGCTGTCAAGTGTCACGGAGTCACCTAGTGCAG	8080 fluorescence intensity (a.u.)
GATGATGTTTCCTGTCCTCCAACTTTCTACAGAATTTTGACGGAGTCACCTAGTGCAG	8340 fluorescence intensity (a.u.)
GGCGGCGCTCGTCATGCTCCAGTTCTTCACCGCCGGCGGCCGGAGTCACCTAGTGCAG	8880 fluorescence intensity (a.u.)

Not a retest: an excerpt of the list.
Sequence	binding signal
TTGATTGATTTTTTTTATATATATTTGCTATTAATAGTCACGGAGTCACCTAGTGCAG	8830 fluorescence intensity (a.u.)
TCTAAAATGATCATGTCGCCCATTTCCCATACTTACATGCCGGAGTCACCTAGTGCAG	8540 fluorescence intensity (a.u.)
CGCTCCCAACACCTCGCGCATTCACTCTGACGCACCGGGCCGGAGTCACCTAGTGCAG	8340 fluorescence intensity (a.u.)
ACCGCCACAGCTTCTGCTTTTTCGCGCGCACCGCGATAGCCGGAGTCACCTAGTGCAG	9710 fluorescence intensity (a.u.)

Further results follow.

Sequence	binding signal
TCAAACTACTAACTTTTTCATCACATCAAAATTTTTCTACCGGAGTCACCTAGTGCAG	9000 fluorescence intensity (a.u.)
GTGTAGCCCATCACGTAAGCCTCACCTTTGACCGGCCGTACGGAGTCACCTAGTGCAG	8510 fluorescence intensity (a.u.)
GAAGATTAGGGTTTCGTCCTGGTTACCAGCCGTCGCCTGTCGGAGTCACCTAGTGCAG	9300 fluorescence intensity (a.u.)
CGTTTGACCACTCGTCTTATTCAATTTTTTTTTGCAAATGCGGAGTCACCTAGTGCAG	11400 fluorescence intensity (a.u.)
TTTTACACTTCAATTCCTATCAGATTCCTGTGTTTTTCCTCGGAGTCACCTAGTGCAG	10100 fluorescence intensity (a.u.)
TGTATTTTTGTGTCTTACATGTAAGGTCGTAGCTCAATTCCGGAGTCACCTAGTGCAG	10300 fluorescence intensity (a.u.)
CAGGCTGTTCCTCTACCTCCCGTGGGCCATAGCCTCCGCGCGGAGTCACCTAGTGCAG	10100 fluorescence intensity (a.u.)
TATTTTCCGTGTGTACCGTTCCGGTTATCAATACCAGCGCCGGAGTCACCTAGTGCAG	8380 fluorescence intensity (a.u.)
ATCCACCTCGCTTCGCTAGCTAGCTGCTCTCCCCACCTATCGGAGTCACCTAGTGCAG	8080 fluorescence intensity (a.u.)
TTTGTGTATTATTTGTATTGTGTTTGTGAATTCAATAAATCGGAGTCACCTAGTGCAG	8800 fluorescence intensity (a.u.)
TCCTCTACTGGTTCTACGTCTTCTCATAATCAACCCAAATCGGAGTCACCTAGTGCAG	11700 fluorescence intensity (a.u.)
GATCGATCGATCCCCACTTTTCCCATCCACCAATCCAAACCGGAGTCACCTAGTGCAG	8240 fluorescence intensity (a.u.)
ACGACCGTCCACGCCTCGCGCCACCTCTCGTCCGCCAAACCGGAGTCACCTAGTGCAG	11800 fluorescence intensity (a.u.)
TAGTTAAAGCCACGTTCTTAATTTCTCCTTTTGCTTTTGGCGGAGTCACCTAGTGCAG	9170 fluorescence intensity (a.u.)
GCTGACTTCATCTTCATTTTAATATATCTCAAACACCACGCGGAGTCACCTAGTGCAG	10200 fluorescence intensity (a.u.)
ACCCGCGCCACCGCCGCTGCTTTCCCCTATGCGTTGATAGCGGAGTCACCTAGTGCAG	8090 fluorescence intensity (a.u.)
TCGCTCACACTCTTCCTTCCACTCTCCCAATACTCACTCACGGAGTCACCTAGTGCAG	8370 fluorescence intensity (a.u.)
GCGCGCGCGGGTGTTCTCTTCGTGGCGAGATCGGCGTTGACGGAGTCACCTAGTGCAG	8110 fluorescence intensity (a.u.)
TTTTTTCCCTTATCATATCAAGCAGCAAGCTCTTTTACCGCGGAGTCACCTAGTGCAG	8020 fluorescence intensity (a.u.)
GGAGATGACCCCTTGTTGTTTGTATGATACTTAAATTGTTCGGAGTCACCTAGTGCAG	11200 fluorescence intensity (a.u.)
CAAATTTGGATTCGTTTTGTTCGTTTCCAGCTCACCCTGTCGGAGTCACCTAGTGCAG	9480 fluorescence intensity (a.u.)
TTTTCCGAGAAAGTTCTTTTGGATACTCCCTCCGTCTCATCGGAGTCACCTAGTGCAG	8430 fluorescence intensity (a.u.)
ACCACACCCTCTCCCTGATTTGGCCAATAGTGTACCGGCGCGGAGTCACCTAGTGCAG	8650 fluorescence intensity (a.u.)
GGTCTATTAGCGCGTTATTAATTATGTATTTGCTATTTTTCGGAGTCACCTAGTGCAG	13200 fluorescence intensity (a.u.)
TTAGTGATCGATACTGGTCGCATTGTTATCTTGTACTCTACGGAGTCACCTAGTGCAG	8180 fluorescence intensity (a.u.)
CAAGGCTTTTTTCCGGCTTTACATTCTCTGCAACATTAATCGGAGTCACCTAGTGCAG	8330 fluorescence intensity (a.u.)
CATAGCCTCATTCTGCCTTGTTCAGTCATGCCTCGCAATGCGGAGTCACCTAGTGCAG	10100 fluorescence intensity (a.u.)
